# PubChem BioAssay AID1259331 – Drosophila RNAi Screening Center, 2017
# Test: 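Fly transmembrane-protein genes that affect zinc toxicity in cultured cells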 (primary screen)
# Cells: Drosophila S2R+ cells
# Knock-down reagent: long dsRNA against Drosophila genes
# Time to read-out: 5 days (4 days knock-down, then 1 day zinc)
# Challenge: zinc chloride at 15 mM final level for 1 day
# Read-out: 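Luminescent ATP assay standing in for viability; Z score is the mean over three replicate plates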
# Reading the numbers: mean Z score: higher = more ATP than other wells, better survival under zinc; ATP luminescence: higher = more ATP, more viable cells
# Hit rule: 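Hit when the absolute Z score is greater than 1.5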
# Meaning of the calls: active = hit, ATP up or down; inactive = not a hit
# In all, the deposit lists about 3,100 reagents; this is a part drawn at random. In the full data, 126 (4.1%) got an active call. 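Calls are per reagent; zinc was so toxic that few knock-downs lowered ATP further, so most hits raise ATP.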 Raw values are not corrected between plates. A plus sign joins genes that one reagent is predicted to hit. Not given: the amount of reagent.
mean Z score,"ATP luminescence, replicate 1","ATP luminescence, replicate 2",call,Gene,amplicon
-0.542,71333,59929,inactive,Ir68a (GeneID 39269),DRSC10599
-0.111,66291,62090,inactive,Yif1 (GeneID 43217),DRSC15817
-0.532,55796,58694,inactive,mAChR-C (GeneID 31626),DRSC17890
0.252,62690,59911,inactive,mAChR-C (GeneID 31626),DRSC27441
-0.334,67914,67920,inactive,CG33012 (GeneID 36342),DRSC06287
-0.102,41033,40708,inactive,CG33012 (GeneID 36342),DRSC06288
1.14,55608,62535,inactive,nemy (GeneID 36395),DRSC05357
-0.6,59037,45937,inactive,nemy (GeneID 36395),DRSC26532
0.0433,29673,31810,inactive,CG5262 (GeneID 40258),DRSC11773
0.0446,50755,52315,inactive,CG5262 (GeneID 40258),DRSC39543
-0.324,48732,38650,inactive,Shaw (GeneID 33599),DRSC00433
0.146,61798,75295,inactive,Shaw (GeneID 33599),DRSC00788
0.131,49324,48202,inactive,Shaw (GeneID 33599),DRSC21368
-0.143,47514,33970,inactive,ppk28 (GeneID 32671),DRSC19919
-0.167,57940,56276,inactive,ppk28 (GeneID 32671),DRSC39604
0.0863,76351,58420,inactive,ppk19 (GeneID 43489),DRSC15321
-0.368,50944,51109,inactive,ppk19 (GeneID 43489),DRSC39774
0.344,70133,80012,inactive,Ir52a (GeneID 36715),DRSC06262
-0.26,28056,30383,inactive,ttv (GeneID 36614),DRSC07709
-0.509,48046,50021,inactive,ttv (GeneID 36614),DRSC26088
-0.416,53430,51304,inactive,CG14223 (GeneID 32972),DRSC24816
0.065,58025,67629,inactive,CG14223 (GeneID 32972),DRSC39909
-0.546,42262,40262,inactive,CG13743 (GeneID 35911),DRSC22775

6 entries from above, arranged by “ATP luminescence, replicate 2”, descending.
mean Z score,"ATP luminescence, replicate 1","ATP luminescence, replicate 2",call,Gene,amplicon
-0.334,67914,67920,inactive,CG33012 (GeneID 36342),DRSC06287
1.14,55608,62535,inactive,nemy (GeneID 36395),DRSC05357
0.252,62690,59911,inactive,mAChR-C (GeneID 31626),DRSC27441
-0.6,59037,45937,inactive,nemy (GeneID 36395),DRSC26532
-0.102,41033,40708,inactive,CG33012 (GeneID 36342),DRSC06288
0.0433,29673,31810,inactive,CG5262 (GeneID 40258),DRSC11773

The list goes on:
mean Z score,"ATP luminescence, replicate 1","ATP luminescence, replicate 2",call,Gene,amplicon
-0.402,42045,39713,inactive,Tmtc1 (GeneID 33455),DRSC00314
-0.36,38695,43742,inactive,Tmtc1 (GeneID 33455),DRSC00411
-0.748,26890,26496,inactive,shg (GeneID 37386),DRSC04714
-0.169,42002,48114,inactive,shg (GeneID 37386),DRSC38948
-0.162,34879,55488,inactive,Acp95EF + Spase22-23,DRSC14102
-0.386,41513,42456,inactive,Orct2 (GeneID 42890),DRSC14613
-0.257,43245,61369,inactive,Orct2 (GeneID 42890),DRSC24714
-0.458,38959,41616,inactive,htl (GeneID 42160),DRSC16968
0.215,49726,52264,inactive,htl (GeneID 42160),DRSC36668
0.406,57014,40622,inactive,Eaat1 (GeneID 34251),DRSC03321
0.0222,59157,61850,inactive,Eaat1 (GeneID 34251),DRSC39607
0.503,63067,43331,inactive,Inx5 (GeneID 32901),DRSC20051
-0.17,40742,44202,inactive,CG33958 (GeneID 37088),DRSC06472
-0.691,56482,61164,inactive,CG33958 (GeneID 37088),DRSC06944
-0.0978,58025,61781,inactive,CG33958 (GeneID 37088),DRSC29635
-0.661,72637,61227,inactive,Tsp42Er (GeneID 35629),DRSC06183
1.09,62856,42349,inactive,CG13579 (GeneID 37905),DRSC04215
-0.157,62336,51372,inactive,CG13579 (GeneID 37905),DRSC25603
0.154,73683,58300,inactive,Dscam1 (GeneID 35652),DRSC07407
0.372,54201,49675,inactive,Dscam1 (GeneID 35652),DRSC21562
-0.459,52452,56225,inactive,Dscam1 (GeneID 35652),DRSC29101
-0.262,47514,51509,inactive,Ir100a (GeneID 43753),DRSC25881
0.385,53293,52658,inactive,Ir100a (GeneID 43753),DRSC39525
-0.184,81916,53481,inactive,Gr68a (GeneID 39324),DRSC10803
-0.114,52965,56362,inactive,Gr68a (GeneID 39324),DRSC39819
-0.661,52915,57313,inactive,NAAT1 (GeneID 31457),DRSC18300
-0.612,45182,58866,inactive,NAAT1 (GeneID 31457),DRSC25615
-0.395,29667,27148,inactive,CG4942 (GeneID 39044),DRSC10462
-0.161,56019,57565,inactive,CG4942 (GeneID 39044),DRSC39879
-0.828,67715,56637,inactive,para (GeneID 32619),DRSC19141
0.212,68915,70219,inactive,para (GeneID 32619),DRSC20360
-0.439,63256,65434,inactive,CG8405 (GeneID 36772),DRSC07166
-1.07,39786,44236,inactive,CG8405 (GeneID 36772),DRSC39857
-0.717,40639,42349,inactive,ppk7 (GeneID 33886),DRSC03236
-0.122,75913,58525,inactive,Ir75a (GeneID 39982),DRSC10188
1.57,74626,72088,active,Ir75a (GeneID 39982),DRSC39494
-0.104,43005,44240,inactive,CG1662 (GeneID 32296),DRSC19754
-0.504,30850,26805,inactive,cue (GeneID 38174),DRSC08248
0.335,55059,58334,inactive,cue (GeneID 38174),DRSC39507
-0.285,71171,67475,inactive,CG32305 (GeneID 317967),DRSC08614
-0.0225,48337,41668,inactive,CG32305 (GeneID 317967),DRSC29854
-0.508,71760,52641,inactive,CG5104 (GeneID 40280),DRSC11765
0.0217,62535,56636,inactive,CG5104 (GeneID 40280),DRSC39641
0.621,88366,68988,inactive,Toll-9 (GeneID 40245),DRSC11776
0.29,56585,38548,inactive,CG42260 (GeneID 37614),DRSC04385
